According to publication PMC7418987, “NHD2-15, a novel antagonist of Growth Factor Receptor-Bound Protein-2 (GRB2), inhibits leukemic proliferation” (PLoS ONE, 2020):
These are yes or no findings as the source states them, for the method shown. Some results given as binding are weak or reduced against the parent protein; the word gives no strength.

Chains of the proteins cited; added tags and fusions are not shown.
UniProt P62993: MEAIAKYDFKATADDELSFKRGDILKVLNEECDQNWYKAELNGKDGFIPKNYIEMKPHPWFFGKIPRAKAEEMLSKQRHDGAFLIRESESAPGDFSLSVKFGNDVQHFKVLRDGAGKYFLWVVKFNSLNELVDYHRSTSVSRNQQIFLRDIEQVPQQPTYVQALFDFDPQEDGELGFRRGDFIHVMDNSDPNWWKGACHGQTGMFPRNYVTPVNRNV

Biological target: T1, GRB2 SH2 domain-binding peptide (biotin-Aha-PSpYVNVQN)
T1 sequence (peptide, phosphotyrosine (pY, third residue of the peptide); biotin-Aha on the N-terminus): PSYVNVQN
Assay: ELISA; competition ELISA: biotinylated peptide (100 nM, TBS pH 7.5) on streptavidin-coated plates; GST-GRB2 20 nM with competitor (NHD2-15 or free peptide) in SuperBlock, 1 h at 37°C; detected with anti-GST-HRP, absorbance at 450 nm; both purified

GST-GRB2 (growth factor receptor-bound protein-2) (from UniProt P62993 1-217)
binding: binds
